# Data reported in PubChem BioAssay AID2685 (National Center for Advancing Translational Sciences (NCATS), 2010).
# Some of the results follow. Shown are side measurements of this screen, not its main read-out; they come without a call. Most of these compounds were active or inconclusive in the main read-out, so they are no random draw. Words in brackets tell the shape of the fitted curve; partial curves, single points and poor fits give uncertain potencies.
# Assay: qHTS Assay for Lipid Storage Modulators in Drosophila S3 Cells;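 for cell number change: cells counted by Cell Tracker Red CMTPX staining in the red channel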
# Details: BODIPY lipid droplet fluorescence, 18-24 h; for cell number change: measured here: cell count max response, cells fed with added oleic acid
# Outline: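 Drosophila S3 cells got compounds at several concentrations plus oleic acid (400 uM solution). Laser-scanning cytometry with 488 nm excitation read lipid droplets at 500-530 nm and cells at 575-640 nm. Percent activity was relative to 20 uM Triacsin C.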
# [1] = measured here: cell number channel AC50, cells fed with added oleic acid
# [2] = measured here: lipid fluorescence (Fed channel) AC50, cells fed with added oleic acid
Structure (SMILES),cell number change [%],AC50 [1],AC50 [2]
CSc1ccc(OC2CCN(Cc3ccccc3)CC2)cc1,-33.3,"10.3 µM [falling, partial curve]","6.51 µM [falling, partial curve]"
CC1=C(C(=O)N2CCN(c3cc(C)ccc3C)CC2)C2(CCC(C)CC2)OC1=O (configuration not stated),-4.78,–,"14.6 µM [rising, single point]"
O=C(Cc1cccs1)N/N=C/C(Cl)=C/c1ccccc1,-37.6,"8.2 µM [falling, partial curve]","6.51 µM [falling, partial curve]"
CCCCC(=O)Nc1cc(OC)c(NC(=O)C2CCCCC2)cc1OC,–,–,"29.1 µM [rising, single point]"
CN(C)c1ccc(NC(=O)CSc2nnc(-c3ccco3)c(-c3ccco3)n2)cc1,1.39,"4.61 µM [rising, single point]",–
CCOC(=O)N1CCC(NC(=O)CSCc2nc(-c3sccc3C)oc2C)CC1,-31.8,–,–
Cc1cccc(C(C)Nc2ccc([N+](=O)[O-])cn2)c1 (configuration not stated),33.3,"0.00517 µM [rising, full curve, poor fit]","3.66 µM [rising, full curve]"
Cc1cc(Cl)c(OCCCN(C)C)c(Br)c1,-37.4,"0.651 µM [falling, partial curve, poor fit]","0.366 µM [falling, full curve]"
COc1ccc(N2CCN(c3ncnc4c3[nH]c3ccccc34)CC2)cc1,-36.9,"23.1 µM [falling, single point]","0.517 µM [rising, full curve]"
COc1ccc(-c2noc(CNC(=O)c3ccc4c(c3)OCO4)n2)cc1OC,5.46,–,–
CCOc1ccccc1N1CC(C(=O)Nc2ccc(C(=O)O)cc2)CC1=O (configuration not stated),-27,–,–
COc1ccc(CCNC(=O)c2ccc(C)s2)cc1OC,6.99,–,–
CC(C)CN1CCN(Cc2cccn2-c2ccccn2)CC1CCO (configuration not stated),-29.3,–,"18.4 µM [rising, partial curve, poor fit]"
COc1ccc(C2CC(c3ccccc3)=NN2C(=O)COC(=O)/C=C/c2ccc(O)c(OC)c2)cc1 (configuration not stated),-2.92,–,–
CN(C)/C=C(\C#N)C(=O)Nc1ccc(O)cc1F,-46.5,"20.6 µM [falling, single point]","18.4 µM [falling, partial curve]"
COC(=O)c1ccccc1NC(=O)N1CCN(c2ccc(F)cc2)CC1,15.5,–,"0.13 µM [rising, full curve, poor fit]"
Cc1cc(OCC(=O)N2CCN(c3ccccn3)CC2)cc(C)c1Br,-15.3,"0.82 µM [rising, partial curve]","0.58 µM [falling, single point]"
O=S(=O)(Nc1ccc2cn[nH]c2c1)c1ccc(C(F)(F)F)cc1,-19.6,–,"14.6 µM [rising, single point]"
O=C(Nc1cccc(F)c1)C1CCCN1S(=O)(=O)c1cccc2cccnc12 (configuration not stated),31.4,"16.4 µM [rising, single point]","29.1 µM [rising, single point]"
CCOc1ccc([C@@H]2CC=C(C(=O)O)CN2S(=O)(=O)c2ccc(C)cc2)cc1,5.28,–,"0.092 µM [rising, full curve, poor fit]"

# Single records (already shown). Values in the order: cell number change [%] | AC50 [1] | AC50 [2]
# CSc1ccc(OC2CCN(Cc3ccccc3)CC2)cc1 is listed with -33.3 | 10.3 µM [falling, partial curve] | 6.51 µM [falling, partial curve]
# CC1=C(C(=O)N2CCN(c3cc(C)ccc3C)CC2)C2(CCC(C)CC2)OC1=O (configuration not stated) is listed with -4.78 | – | 14.6 µM [rising, single point]

# Going on with the list:

Structure (SMILES),cell number change [%],AC50 [1],AC50 [2]
CC(=O)c1cccc(NC(=O)CN2C=NS(=O)(=O)c3ccc(C)cc32)c1,-42.6,"23.1 µM [falling, partial curve, poor fit]","29.1 µM [falling, single point]"
COc1ccc(C(O)P(=O)(OCC(C)C)OCC(C)C)c(OC)c1 (configuration not stated),-8.14,–,"0.116 µM [rising, full curve, poor fit]"
COCCOC(=O)C1=C(C)Nc2cc(=O)[nH]c(=O)n2C1c1cccc([N+](=O)[O-])c1 (configuration not stated),–,–,"10.3 µM [rising, single point]"
CC(C)(C)OC(=O)N1CCC(Cc2cc(-c3ccccc3)no2)(C(=O)O)CC1,32,–,–
NC(=O)c1cc2c(s1)-c1cc(Cl)ccc1SC2,14.5,"1.64 µM [rising, partial curve, poor fit]","25.9 µM [rising, single point]"
S=C(Nc1ccc(Cl)cc1Cl)N1CCN(c2ccccn2)CC1,55.8,"29.1 µM [rising, single point]","29.1 µM [falling, single point]"
O=C(N(Cc1ccccc1)c1ccccn1)C12CC3CC(CC(C3)C1)C2,-27.8,"0.82 µM [falling, full curve, poor fit]","0.164 µM [falling, full curve]"
CN(C(=O)CSc1nnc(-c2ccccc2F)n1N)C1CCCCC1,-18.7,–,–
COc1ccc(C(CC(=O)c2ccc(C)cc2)C(C#N)C#N)cc1OC (configuration not stated),0.318,–,"29.1 µM [falling, single point]"
O=C(CNC(=O)c1ccc(Br)o1)Nc1cccc(S(=O)(=O)N2CCCC2)c1,1.13,"0.0231 µM [falling, full curve, poor fit]","0.00461 µM [falling, full curve, poor fit]"
CN(CC(=O)Nc1cccc(F)c1)C(=O)c1cccc2ccccc12,–,–,"23.1 µM [falling, partial curve]"
CCN(CC)c1ccc(C(=S)NC2CCCCC2)cc1,-26.8,–,"2.06 µM [falling, partial curve, poor fit]"
COc1ccc(C(=O)OCC(=O)Nc2ccc(F)c(F)c2)cc1OC,110,"5.8 µM [rising, full curve]","18.4 µM [rising, partial curve]"
COc1cc(C(=O)Nn2cnnc2)ccc1OC(F)F,20.1,–,"18.4 µM [rising, single point]"
CC(C)NCCCCOc1ccc(Br)cc1Cl,-9.23,–,–
CCN1CCN(Cc2nc3c(c(=O)n(C)c(=O)n3C)n2C(C)C(C)=O)CC1 (configuration not stated),-2.63,–,–
O=C(c1cccc(S(=O)(=O)N2CCOCC2)c1)N(CCc1ccccc1)Cc1ccccc1,-4.02,–,"5.8 µM [falling, full curve]"
Cn1cccc1Cc1nnc(SCC(=O)N2CCCCCC2)n1CCc1ccccc1,4.85,–,"6.51 µM [rising, single point]"
COCC(C)NC(=O)CSc1nc2nn(-c3ccccc3)c(=O)c-2c2n1CCCCC2 (configuration not stated),3.3,"0.00461 µM [falling, full curve, poor fit]",–
Cc1cccc(C2C3=C(Nc4[nH]n(-c5ccccc5)c(=O)c42)c2ccccc2C3=O)c1 (configuration not stated),21.2,–,–

# Given with tabs: entries from further up
Structure (SMILES)	cell number change [%]	AC50 [1]	AC50 [2]
COc1ccc(-c2noc(CNC(=O)c3ccc4c(c3)OCO4)n2)cc1OC	5.46	–	–
CN(C(=O)CSc1nnc(-c2ccccc2F)n1N)C1CCCCC1	-18.7	–	–
COc1ccc(C(CC(=O)c2ccc(C)cc2)C(C#N)C#N)cc1OC (configuration not stated)	0.318	–	29.1 µM [falling, single point]
Cc1cccc(C2C3=C(Nc4[nH]n(-c5ccccc5)c(=O)c42)c2ccccc2C3=O)c1 (configuration not stated)	21.2	–	–

# (cont.)

Structure (SMILES),cell number change [%],AC50 [1],AC50 [2]
CNC(=O)CCCCC(=O)N/N=C/c1ccc(Cl)cc1Cl,18.2,–,"14.6 µM [rising, partial curve]"
COc1ccc(NC(=O)c2ccc(N3CCOCC3)nc2)cc1,2.16,–,–
Cc1ccnc(NC(=O)CCC(=O)N(CC(=O)NCc2ccccc2)Cc2cccs2)c1,23.5,–,"1.64 µM [rising, partial curve]"
CC1CCC(NC(=O)c2cc(S(=O)(=O)N3CCCCC3)ccc2N2CCOCC2)CC1 (configuration not stated),-10,–,"16.4 µM [falling, single point]"
O=C(CN1C2CCCC1CC(NC(=O)c1ccccc1)C2)Nc1ccccc1C(F)(F)F (configuration not stated),-25,–,"35.5 µM [rising, single point]"
Cc1ccnn1CC(=O)N/N=C/c1ccc([N+](=O)[O-])s1,-34.4,"29.1 µM [falling, single point]","18.4 µM [falling, partial curve]"
COc1cc(/C=N/n2nnnc2N)ccc1OCc1c(C)no[n+]1[O-],–,"1.3 µM [falling, single point]","7.31 µM [rising, partial curve, poor fit]"
CCCn1cnc2c(c1=O)c1nc3ccccc3nc1n2CCc1ccccc1,87.3,"0.326 µM [rising, full curve]",–
Cc1ccc(NC(=O)CCCn2c(=O)[nH]c3ccsc3c2=O)cc1,10.7,–,"0.58 µM [rising, single point]"
CC(CN1C(C)CCCC1C)OC(=O)c1ccccc1Cl (configuration not stated),12.9,"0.411 µM [rising, full curve]","0.58 µM [rising, full curve]"
COc1cccc(CC(NC(C)=O)C(=O)NC2CCN(S(=O)(=O)c3cccc4ccccc34)CC2)c1 (configuration not stated),4.97,–,–
COc1ccc(C(O)Cn2ccsc2=NC(C)=O)cc1 (configuration not stated),–,–,"29.1 µM [rising, single point]"
CCOC(=O)C1=C(C)NC(C)=C(C(=O)OCC)C1c1cc2ccc(C)cc2[nH]c1=O,-31.1,"23.1 µM [falling, single point]",–
CC(C)c1nc2sc(C(=O)O)c(N)c2c2c1CCCC2,-0.341,–,"0.461 µM [falling, single point]"
CCOc1cc(S(=O)(=O)N2CCC(c3nc4ccccc4s3)CC2)c(OCC)cc1S(=O)(=O)N1CCCCC1,2.41,–,–
Cc1ccc(S(=O)(=O)Nc2cccc(C(=O)N3CCC(C(N)=O)CC3)c2)cc1,9.93,–,"0.58 µM [rising, full curve, poor fit]"
CCOc1cc2[nH]c(=S)n(C3CC3)c(=O)c2cc1OCC,-7.09,–,–
Cc1ccc(C(=O)NNC(=O)c2ccncc2)cc1S(=O)(=O)N1CCCCC1,29.2,–,"6.51 µM [rising, single point]"
O=C(Cc1ccc(F)cc1)NCc1cccnc1,-8.79,–,–
COc1ccc(NC(=O)COC(=O)c2ccc(S(=O)(=O)N(C)c3ccccc3OC)cc2)cc1OC,60.9,–,"5.17 µM [falling, single point]"
